PubChem BioAssay AID1508597 | Cure First | 2020

- Screen: 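Survival screen with siRNA in ovarian cancer cells derived from patients, with or without rucaparib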 (primary screen)
- System: human ovarian carcinoma lines grown from tumours: OCI-P5x (papillary serous) and OCI-C5x (clear cell)
- Knock-down reagent: siRNA pool against human genes, 1.25 pmol siRNA per well
- Duration: 72 h or 96 h, depending on the cell culture
- Treatment: rucaparib 20 µM (about IC30) or vehicle, present until read-out
- Rucaparib or vehicle: Rucaparib
- Cell line: OCI-P5x (serous)
- Measured: 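Luminescent ATP-based viability assay read 72 or 96 h after transfection, depending on culture, given as normalised percent viability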
- Reading the numbers: viability, normalised: higher = more viable cells remaining
- Active means: 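Active when normalised viability falls below 80 percent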
- Meaning of the calls: active = viability under 80%; inactive = viability 80% or more
This is an unselected part of the about 2,100 reagents, under one of the conditions tested. 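Calls flag viability under 80% in either arm, not effects specific to rucaparib; the reference for percent is not stated.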 A reagent listed more than once was tested more than once; the source does not tell the runs apart. Not stated in the record: the 100% reference.

no.	target	technical replicate	viability, normalised (%)	call
1	RIGI	1	84.5	inactive
2	RIGI	2	85.2	inactive
3	RIGI	3	83.2	inactive
4	MPLKIP	1	71.3	active
5	MPLKIP	2	59.5	active
6	MPLKIP	3	60.8	active
7	CKMT2	1	104	inactive
8	CKMT2	2	102	inactive
9	CKMT2	3	103	inactive
10	NRXN1	1	44.7	active
11	NRXN1	2	52.8	active
12	NRXN1	3	47.3	active
13	PCDHB10	1	71.2	active
14	PCDHB10	2	64.6	active
15	PCDHB10	3	62.9	active
16	CDC42BPG	1	96.9	inactive
17	CDC42BPG	2	91.9	inactive
18	CDC42BPG	3	92	inactive
19	ING3	1	54.1	active
20	ING3	2	43.4	active
21	ING3	3	27.4	active
22	SOX1	1	34	active
23	SOX1	2	39.8	active
24	SOX1	3	58	active
25	PRKAR2B	1	127	inactive
26	PRKAR2B	2	146	inactive
27	PRKAR2B	3	148	inactive
28	NRBP1	1	68	active
29	NRBP1	2	80.6	inactive
30	NRBP1	3	79.3	active
31	PARP9	1	43.8	active
32	PARP9	2	44.6	active
33	PARP9	3	42.2	active
34	CDK11B	1	93.9	inactive
35	CDK11B	2	93.8	inactive
36	CDK11B	3	100	inactive
37	RECQL4	1	76.1	active
38	RECQL4	1	168	inactive
39	RECQL4	1	48.1	active
40	RECQL4	2	117	inactive
41	RECQL4	2	55.4	active
42	RECQL4	2	68.8	active
43	RECQL4	3	56.3	active
44	RECQL4	3	85.5	inactive
45	RECQL4	3	130	inactive

Records listed so far whose gene name begins with P or p:
target	technical replicate	viability, normalised (%)	call
PCDHB10	1	71.2	active
PCDHB10	2	64.6	active
PCDHB10	3	62.9	active
PRKAR2B	1	127	inactive
PRKAR2B	2	146	inactive
PRKAR2B	3	148	inactive
PARP9	1	43.8	active
PARP9	2	44.6	active
PARP9	3	42.2	active
